Results as given in US20240317882A1.
These are yes or no findings as the source states them, for the method shown. Some binding calls cover weakened binding; strength is not graded here.

Chains of the proteins cited; added tags and fusions are not shown. Residues count along the entry.
UniProt P14209, residues 23-122: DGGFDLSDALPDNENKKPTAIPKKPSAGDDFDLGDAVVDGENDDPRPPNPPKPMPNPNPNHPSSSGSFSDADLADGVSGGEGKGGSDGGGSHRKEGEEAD

Target: extracellular domain of CD99 (UniProt P14209)
Test: surface plasmon resonance (BiacoreX)

Row | binding | Binder
1 | binds | C3 anti-CD99 scFv (soluble) (scFv) scFv: QVQLVQSGAEVKKPGASVKVSCKASGFNIKDTYIHWVRQAPGQGLEWMGRIDPANGNTKYDPKFQGRVTMTRDTSISTAYMELSRLRSDDTAVYYCARRGGVDWGQGTLVTVSSGGGGSGGGGSGGGGSDIVMTQTPLSLSVTPGQPASISCKSSQSLLDGDGKTYLNWLLQKPGQSPQRLIYLVSKLDSGVPDRFSGSGSGTDFTLKISRVEAEDVGVYYCWQGTHFPRTFGQGTKLEIK
2 | binds | C4 anti-CD99 scFv (soluble) (scFv) scFv: EVQLQQSGAELVKPGASVKLSCTASGFDIKDTYIHWVKQRPEQGLEWIGRIDPANGDTRYDPEFQGKASLTADTSSNTAYLQFSNLTSEDTAVYYCARRGGLSWGQGTTLTVSSGGGGSGGGGSGGGGSDIQMTQSPASLSASVGETVTITCRASGNIHNYLAWYQQKQGKSPQLLVYNAKTLADGVPSRFSGSGSGTQYSLKINSLQPEDFGSYYCQHFWSTPWTFGGGTKLEIK
